The results in this text go back to patent US20180280393A1, “METHODS AND COMPOSITIONS FOR TREATMENT OF METASTATIC AND REFRACTORY CANCERS AND TUMORS” (The Wistar Institute of Anatomy and Biology, priority 2015, published 2018).

Test [1] concerns A2780 ovarian cancer cells. Put plainly: Molecular screening of compounds on A2780 cell proliferation (resazurin fluorescence). The format is cell-based. As to conditions: Homo sapiens, 72 h; A2780 cells cultured 3 days; N/A = ambiguous curve fits or EC50 greater than the highest concentration tested (25 μM); read-out: EC5 - A2780 ovarian cancer cells. The method, then: Cell proliferation assays—Cells were plated in 96-well plates. Compounds were added the next morning, and cell proliferation was measured 48 hrs later with the […] 96 MTS assay (Promega) according to the manufacturer's instructions. Molecular screening of compounds on A2780 cells was performed by adding compounds the morning after plating in 384-well plates and measuring proliferation 72 hrs later with resazurin fluorescence. Normalized percent inhibition (NPI) was calculated with respect to fluorescence values obtained with DMSO negative control and doxorubicin (5 μM) positive control as NPI=100%*(DMSO−compound)/(DMSO−doxorubicin). TCR ligation of human CD8 T cells
(§1) EC50 values were calculated from normalized percent inhibition data using non-linear curve fitting in PRISM software.

Test [2] concerns human T cells. Put plainly: ConA-induced activation and expansion of human T cells (high-throughput screen). It counts as cell-based. The note with it: T-cell, 168 h; human T cells activated with ConA for 7 days; N/A = ambiguous curve fits or EC50 greater than the highest concentration tested (25 μM). As for the experimental part: T cell stimulation—For human T cell proliferation assays, peripheral blood lymphocytes were obtained by leukapheresis/elutriation and Miltenyi bead-purified and K562 cells expressing human CD32 were generated as previously described^41. […] PBMCs were labeled with CELLTRACE Violet stain (Invitrogen) according to the manufacturer's instructions and cocultured with loaded K32 cells at a 10:1 T cells:K32 ratio or activated with ConA (2 μg/ml, Sigma). Proliferation of stimulated T cells was determined 7 days later by FACS and Division Index was calculated using FlowJo software.
as §1

For `Cc1ccc(NC(=O)c2ccc(CN3CCN(C)CC3)cc2)cc1Nc1nccc(-c2cccnc2)n1` [STI571 (imatinib), imatinib], in test [1], the EC50 worked out at 20.8 µM.

On to `CCc1cnn2c(NCc3ccc[n+]([O-])c3)cc(N3CCCC[C@H]3CCO)nc12` [SCH727965], for which the EC50 in test [2] amounted to 0.00273 µM; in test [1], 2.94 µM.
